# According to publication doi:10.1101/2023.07.25.550453 (bioRxiv, 2023):
# No constants are given. Whether binding was seen depends on the method and setting. For some assays here: In cells and extracts the contact can be indirect. Some entries that bind do so weakly or less than the wild type. Where a sequence is shown, tags or fusion partners need not be part of it.
# T1: MYC-ZC3H18-ARMmut (mouse) (mouse) (UniProt Q0P678)
# T1 sequence: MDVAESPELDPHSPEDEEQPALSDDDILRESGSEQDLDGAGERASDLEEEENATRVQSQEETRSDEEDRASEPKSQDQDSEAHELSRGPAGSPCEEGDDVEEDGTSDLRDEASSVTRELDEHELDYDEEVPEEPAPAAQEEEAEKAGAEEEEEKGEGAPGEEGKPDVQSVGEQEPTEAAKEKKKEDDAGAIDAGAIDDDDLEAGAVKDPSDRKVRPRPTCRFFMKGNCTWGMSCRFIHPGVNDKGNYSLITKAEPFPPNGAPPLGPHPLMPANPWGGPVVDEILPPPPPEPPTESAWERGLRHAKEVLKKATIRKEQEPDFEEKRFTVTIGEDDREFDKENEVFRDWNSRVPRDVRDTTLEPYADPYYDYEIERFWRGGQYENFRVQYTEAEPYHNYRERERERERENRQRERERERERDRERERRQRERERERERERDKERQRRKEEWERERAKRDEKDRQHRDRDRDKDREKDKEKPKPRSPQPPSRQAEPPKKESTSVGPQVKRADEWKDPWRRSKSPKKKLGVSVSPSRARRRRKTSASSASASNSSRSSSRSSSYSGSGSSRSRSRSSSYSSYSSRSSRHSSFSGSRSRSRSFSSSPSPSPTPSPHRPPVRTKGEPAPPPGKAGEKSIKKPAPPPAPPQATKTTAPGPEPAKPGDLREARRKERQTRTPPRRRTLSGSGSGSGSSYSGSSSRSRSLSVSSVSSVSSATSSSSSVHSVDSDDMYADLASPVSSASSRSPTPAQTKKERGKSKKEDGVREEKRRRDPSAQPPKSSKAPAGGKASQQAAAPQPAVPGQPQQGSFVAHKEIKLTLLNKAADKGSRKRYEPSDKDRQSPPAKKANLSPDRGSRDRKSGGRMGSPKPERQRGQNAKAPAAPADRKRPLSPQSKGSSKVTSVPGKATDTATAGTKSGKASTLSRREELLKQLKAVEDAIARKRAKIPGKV
# T2: MYC-ZC3H18-WT (mouse) (mouse) (UniProt Q0P678)
# T2 sequence: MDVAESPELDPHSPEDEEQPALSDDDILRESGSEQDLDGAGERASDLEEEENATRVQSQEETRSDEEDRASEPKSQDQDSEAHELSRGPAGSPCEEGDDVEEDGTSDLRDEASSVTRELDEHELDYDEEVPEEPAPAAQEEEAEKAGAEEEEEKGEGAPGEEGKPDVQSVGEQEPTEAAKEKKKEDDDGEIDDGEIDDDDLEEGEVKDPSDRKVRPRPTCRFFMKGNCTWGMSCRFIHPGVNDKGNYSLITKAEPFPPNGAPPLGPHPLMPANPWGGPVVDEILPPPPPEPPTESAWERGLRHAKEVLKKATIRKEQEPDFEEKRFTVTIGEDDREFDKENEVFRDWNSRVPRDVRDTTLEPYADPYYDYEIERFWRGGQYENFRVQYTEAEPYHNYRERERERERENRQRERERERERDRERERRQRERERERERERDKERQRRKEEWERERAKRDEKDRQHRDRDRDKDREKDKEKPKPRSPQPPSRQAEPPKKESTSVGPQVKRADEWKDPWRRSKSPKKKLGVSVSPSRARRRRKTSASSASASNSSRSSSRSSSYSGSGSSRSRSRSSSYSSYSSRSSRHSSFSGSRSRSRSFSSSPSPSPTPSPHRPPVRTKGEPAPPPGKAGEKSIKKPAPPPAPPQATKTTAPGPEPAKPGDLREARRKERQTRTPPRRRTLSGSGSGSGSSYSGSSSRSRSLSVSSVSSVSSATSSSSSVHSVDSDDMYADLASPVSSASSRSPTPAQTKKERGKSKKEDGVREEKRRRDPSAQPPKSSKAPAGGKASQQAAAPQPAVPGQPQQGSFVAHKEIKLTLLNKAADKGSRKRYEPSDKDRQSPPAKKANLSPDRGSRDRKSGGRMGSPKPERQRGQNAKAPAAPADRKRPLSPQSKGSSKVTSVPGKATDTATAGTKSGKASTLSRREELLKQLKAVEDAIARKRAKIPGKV
# T3: MYC-ZC3H18-W297E (mouse) (mouse) (UniProt Q0P678)
# T3 sequence: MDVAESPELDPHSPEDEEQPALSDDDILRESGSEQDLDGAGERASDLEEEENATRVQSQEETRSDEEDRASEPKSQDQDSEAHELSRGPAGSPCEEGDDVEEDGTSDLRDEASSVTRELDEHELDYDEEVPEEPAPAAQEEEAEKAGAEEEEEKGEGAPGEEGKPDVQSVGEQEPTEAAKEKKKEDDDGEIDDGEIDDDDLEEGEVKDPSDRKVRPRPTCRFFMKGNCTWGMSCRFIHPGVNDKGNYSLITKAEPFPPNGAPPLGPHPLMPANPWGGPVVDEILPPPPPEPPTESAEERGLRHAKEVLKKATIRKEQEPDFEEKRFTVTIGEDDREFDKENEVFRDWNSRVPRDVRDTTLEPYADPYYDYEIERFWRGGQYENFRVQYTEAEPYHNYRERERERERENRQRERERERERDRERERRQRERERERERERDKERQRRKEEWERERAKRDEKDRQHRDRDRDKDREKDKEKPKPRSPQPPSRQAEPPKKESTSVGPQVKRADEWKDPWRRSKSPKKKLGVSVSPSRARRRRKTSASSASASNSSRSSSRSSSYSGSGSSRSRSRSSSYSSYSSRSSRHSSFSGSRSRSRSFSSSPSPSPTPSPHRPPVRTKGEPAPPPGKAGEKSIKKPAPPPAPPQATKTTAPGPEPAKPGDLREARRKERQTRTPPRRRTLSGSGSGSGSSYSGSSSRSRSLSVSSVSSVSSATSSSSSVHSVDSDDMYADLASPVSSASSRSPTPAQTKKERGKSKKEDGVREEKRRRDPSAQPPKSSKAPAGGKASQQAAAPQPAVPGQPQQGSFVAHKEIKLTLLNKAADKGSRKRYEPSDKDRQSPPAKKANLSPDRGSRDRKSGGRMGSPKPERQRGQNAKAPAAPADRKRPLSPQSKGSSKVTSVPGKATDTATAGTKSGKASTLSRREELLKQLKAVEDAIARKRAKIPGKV
# T4: His-MBP-NCBP3^1-320 (human) (UniProt Q53F19)
# T4 sequence: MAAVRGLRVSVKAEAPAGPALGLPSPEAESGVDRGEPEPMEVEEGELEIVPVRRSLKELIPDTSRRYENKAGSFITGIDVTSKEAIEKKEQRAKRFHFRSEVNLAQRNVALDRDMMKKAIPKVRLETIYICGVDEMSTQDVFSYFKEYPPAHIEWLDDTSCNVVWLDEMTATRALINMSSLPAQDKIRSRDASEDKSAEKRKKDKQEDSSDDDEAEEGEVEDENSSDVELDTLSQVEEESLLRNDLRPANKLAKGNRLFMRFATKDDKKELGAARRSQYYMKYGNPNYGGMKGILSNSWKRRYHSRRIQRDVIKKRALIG
# Experiments:
# [1] = target: T1, MYC-ZC3H18-ARMmut (mouse) (mouse); test: co-IP
# [2] = target: T2, MYC-ZC3H18-WT (mouse) (mouse); test: co-IP
# [3] = target: T3, MYC-ZC3H18-W297E (mouse) (mouse); test: co-IP
# [4] = target: T4, His-MBP-NCBP3^1-320 (human); test: pull-down
binding [1],binding [2],binding [3],binding [4],Binder
binds,binds,,,"ZCCHC8 (mouse, endogenous) (protein, UniProt Q9CYA6 1-709) MAAGVDFGDLELFEAFDPPEESTPKPVHTRFKDDEEEEDDDDDENGVGDAELQEQLRRCEATIEQLRAENQELKRKLNILTRPSGILVSNTKIDGPLLQILFMNNAISKQYHQEIEEFVSNLVKRFEEQQKNDVEKTSFSLLPQPSSVMLEEDHKVEESCAVKNNKEAFSVVGSVLYFTNFCLDKLGQPLLNENPQLTEGWEIPKYQQVFSHIVPLEGQEMQVKAKRPKPHCFNCGSEEHQMKECPMPRNAARISEKRKEYMDACGEASGQSFQQRYHAEEVEERFGRFKPGVISEELQDALGVTDKSLPPFIYRMRQLGYPPGWLKEAELENSGLALYDGNDDADGETETGEIQNKNVTYDLSKLVNYPGFNISTPRGIPDEWRMFGSIPMQACQQKDVFASYLNSNIQSPSMRSSGKRSSSQSSPNSPKKQRKEGSAAASPADMELDSDVEIPPGSQSSKAFQFQPPLPPGTPPPLPQGTPPPLFTPPLPKGTPPLTPSDSPQARPAASAMDEDALTLEELEEQQRQIWAALQQAEGGNGDSDVPGDTPLTGNSVASSPCPNEFDLPVPEGKALEKPVLAEPQEPAASVDTAGPEPSCSPAAGAAVLSQREEEAAAEGGPGDALLDNGGVLNMNMSNGSNQQPIHPDSRPPMAPKTHSPVPDMSKFATGITPFEFENMAESTGMYLRIRNLLKNSPRNQQKNKKTCE"
,binds,binds,,"ARS2 (mouse, endogenous) (protein, UniProt Q99MR6 1-875) MGDSDDEYDRRRRDKFRRERSDYDRSRERDERRRGDDWNDREWDRGRERRSRGEYRDYDRNRRERFSPPRHELSPPQKRMRRDWDEHSSDPYHSGYDMPYAGGGGGPTYGPPQPWGHPDVHIMQHHVLPIQARLGSIAEIDLGVPPPIMKSFKEFLLSLDDSVDETEAVKRYNDYKLDFRRQQMQDFFLAHKDEEWFRSKYHPDEVGKRRQEARGALQNRLKVFLSLMESGWFDNLLLDIDKADAIVKMLDAAVIKMEGGTENDLRILEQEEEEEQAGKTGEASKKEEARAGPALGEGERKANDKDEKKEDGKQAENDSSNDDKTKKSEGDGDKEEKKEEAEKEAKKSKKRNRKQSGDDSFDEGSVSESESESEGGQAEEEKEEAEEALKEKEKPKEEEKEKPKDAAGLECKPRPLHKTCSLFMRNIAPNISRAEIISLCKRYPGFMRVALSEPQPERRFFRRGWVTFDRSVNIKEICWNLQNIRLRECELSPGVNRDLTRRVRNINGITQHKQIVRNDIKLAAKLIHTLDDRTQLWASEPGTPPVPTSLPSQNPILKNITDYLIEEVSAEEEELLGSSGGPPPEEPPKEGNPAEINVERDEKLIKVLDKLLLYLRIVHSLDYYNTCEYPNEDEMPNRCGIIHVRGPMPPNRISHGEVLEWQKTFEEKLTPLLSVRESLSEEEAQKMGRKDPEQEVEKFVTSNTQELGKDKWLCPLSGKKFKGPEFVRKHIFNKHAEKIEEVKKEVAFFNNFLTDAKRPALPEIKPAQPPGPAQILPPGLTPGLPYPHQTPQGLMPYGQPRPPILGYGAGAVRPAVPTGGPPYPHAPYGAGRGNYDAFRGQGGYPGKPRNRMVRGDPRAIVEYRDLDAPDDVDFF"
,,,no binding,"nuclear cap-binding complex (CBC: CBP80ΔNLS + CBP20), human (complex, UniProt Q09161 20-790; P52298 1-156) chain 1: KTSDANETEDHLESLICKVGEKSACSLESNLEGLAGVLEADLPNYKSKILRLLCTVARLLPEKLTIYTTLVGLLNARNYNFGGEFVEAMIRQLKESLKANNYNEAVYLVRFLSDLVNCHVIAAPSMVAMFENFVSVTQEEDVPQVRRDWYVYAFLSSLPWVGKELYEKKDAEMDRIFANTESYLKRRQKTHVPMLQVWTADKPHPQEEYLDCLWAQIQKLKKDRWQERHILRPYLAFDSILCEALQHNLPPFTPPPHTEDSVYPMPRVIFRMFDYTDDPEGPVMPGSHSVERFVIEENLHCIIKSHWKERKTCAAQLVSYPGKNKIPLNYHIVEVIFAELFQLPAPPHIDVMYTTLLIELCKLQPGSLPQVLAQATEMLYMRLDTMNTTCVDRFINWFSHHLSNFQFRWSWEDWSDCLSQDPESPKPKFVREVLEKCMRLSYHQRILDIVPPTFSALCPANPTCIYKYGDESSNSLPGHSVALCLAVAFKSKATNDEIFSILKDVPNPNQDDDDDEGFSFNPLKIEVFVQTLLHLAAKSFSHSFSALAKFHEVFKTLAESDEGKLHVLRVMFEVWRNHPQMIAVLVDKMIRTQIVDCAAVANWIFSSELSRDFTRLFVWEILHSTIRKMNKHVLKIQKELEEAKEKLARQHKRRSDDDDRSSDRKDGVLEEQIERLQEKVESAQSEQKNLFLVIFQRFIMILTEHLVRCETDGTSVLTPWYKNCIERLQQIFLQHHQIIQQYMVTLENLLFTAELDPHILAVFQQFCALQA chain 2: MSGGLLKALRSDSYVELSQYRDQHFRGDNEEQEKLLKKSCTLYVGNLSFYTTEEQIYELFSKSGDIKKIIMGLDKMKKTACGFCFVEYYSRADAENAMRYINGTRLDDRIIRTDWDAGFKEGRQYGRGRSGGQVRDEYRQDYDAGRGGYGKLAQNQ"
